Some of the results follow.
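Note: competitive profiling in live THP-1 cells: cysteine peptides tagged with an iodoacetamide desthiobiotin (IA-DTB) probe, intensity after compound treatment relative to DMSO-treated cells.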

Protein sequences, listed by entry. Tags and fused reporters are not part of them. Lines headed by an entry give the natural chain unless they say otherwise; changes in a name come on top.
UniProt Q14160: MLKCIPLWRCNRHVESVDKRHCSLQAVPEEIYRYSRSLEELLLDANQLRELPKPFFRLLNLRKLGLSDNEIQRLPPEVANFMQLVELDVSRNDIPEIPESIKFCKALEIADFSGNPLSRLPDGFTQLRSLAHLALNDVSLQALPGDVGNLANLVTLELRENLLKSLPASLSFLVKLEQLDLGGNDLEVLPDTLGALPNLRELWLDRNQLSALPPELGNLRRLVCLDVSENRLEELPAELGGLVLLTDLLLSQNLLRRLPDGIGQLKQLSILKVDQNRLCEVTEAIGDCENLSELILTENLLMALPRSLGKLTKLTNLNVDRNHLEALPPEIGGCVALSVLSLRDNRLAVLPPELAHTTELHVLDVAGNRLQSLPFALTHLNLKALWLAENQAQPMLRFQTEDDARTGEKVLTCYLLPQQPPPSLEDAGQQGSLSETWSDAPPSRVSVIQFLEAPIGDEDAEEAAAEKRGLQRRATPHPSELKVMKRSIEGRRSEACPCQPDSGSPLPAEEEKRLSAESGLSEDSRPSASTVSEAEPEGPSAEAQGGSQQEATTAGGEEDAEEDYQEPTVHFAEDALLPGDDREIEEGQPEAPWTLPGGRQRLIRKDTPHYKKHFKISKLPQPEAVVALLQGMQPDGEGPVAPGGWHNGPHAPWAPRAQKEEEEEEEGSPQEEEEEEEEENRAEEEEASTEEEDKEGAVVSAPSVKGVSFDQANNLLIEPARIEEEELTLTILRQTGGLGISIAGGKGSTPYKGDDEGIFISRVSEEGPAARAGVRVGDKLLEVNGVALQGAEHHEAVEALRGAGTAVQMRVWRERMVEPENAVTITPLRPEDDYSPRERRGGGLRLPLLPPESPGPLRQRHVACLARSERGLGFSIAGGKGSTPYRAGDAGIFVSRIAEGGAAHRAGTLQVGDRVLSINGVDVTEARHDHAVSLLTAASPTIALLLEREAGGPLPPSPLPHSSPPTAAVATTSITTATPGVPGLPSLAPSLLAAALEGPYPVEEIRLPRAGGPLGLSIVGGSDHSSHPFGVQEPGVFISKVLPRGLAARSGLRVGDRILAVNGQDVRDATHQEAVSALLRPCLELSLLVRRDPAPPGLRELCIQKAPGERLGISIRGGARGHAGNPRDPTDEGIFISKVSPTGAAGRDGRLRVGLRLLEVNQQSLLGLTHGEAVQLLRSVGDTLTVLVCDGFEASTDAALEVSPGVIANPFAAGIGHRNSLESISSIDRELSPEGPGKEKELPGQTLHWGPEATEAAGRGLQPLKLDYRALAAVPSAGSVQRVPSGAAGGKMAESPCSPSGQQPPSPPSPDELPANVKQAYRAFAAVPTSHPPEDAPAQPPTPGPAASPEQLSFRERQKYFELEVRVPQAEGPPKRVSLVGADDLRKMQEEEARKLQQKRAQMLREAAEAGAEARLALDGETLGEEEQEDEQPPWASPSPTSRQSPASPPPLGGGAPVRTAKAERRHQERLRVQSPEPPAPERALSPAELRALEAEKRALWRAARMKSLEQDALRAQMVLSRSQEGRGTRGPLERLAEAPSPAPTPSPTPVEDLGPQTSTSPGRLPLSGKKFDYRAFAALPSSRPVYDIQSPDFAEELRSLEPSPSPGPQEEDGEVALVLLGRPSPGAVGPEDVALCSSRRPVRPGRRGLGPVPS
UniProt Q15436: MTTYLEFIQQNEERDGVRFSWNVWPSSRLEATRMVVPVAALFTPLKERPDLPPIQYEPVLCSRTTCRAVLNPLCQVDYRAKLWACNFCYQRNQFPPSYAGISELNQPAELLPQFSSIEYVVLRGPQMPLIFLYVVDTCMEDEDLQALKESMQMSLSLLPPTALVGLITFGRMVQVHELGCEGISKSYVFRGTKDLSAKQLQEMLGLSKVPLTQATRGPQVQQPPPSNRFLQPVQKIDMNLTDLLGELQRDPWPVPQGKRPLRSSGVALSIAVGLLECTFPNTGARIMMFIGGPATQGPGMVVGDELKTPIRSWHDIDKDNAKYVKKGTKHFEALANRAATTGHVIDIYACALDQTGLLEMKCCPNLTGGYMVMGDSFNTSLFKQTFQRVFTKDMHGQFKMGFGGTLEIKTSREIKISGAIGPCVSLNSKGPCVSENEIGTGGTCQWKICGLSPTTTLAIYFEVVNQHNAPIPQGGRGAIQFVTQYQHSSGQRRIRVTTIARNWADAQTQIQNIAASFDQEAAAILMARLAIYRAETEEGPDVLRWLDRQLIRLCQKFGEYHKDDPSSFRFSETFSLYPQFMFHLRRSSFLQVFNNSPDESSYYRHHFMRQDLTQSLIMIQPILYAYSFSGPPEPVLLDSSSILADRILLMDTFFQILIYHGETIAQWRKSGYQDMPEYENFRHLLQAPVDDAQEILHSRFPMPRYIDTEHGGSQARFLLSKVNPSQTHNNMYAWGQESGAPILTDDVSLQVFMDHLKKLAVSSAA
UniProt O94979: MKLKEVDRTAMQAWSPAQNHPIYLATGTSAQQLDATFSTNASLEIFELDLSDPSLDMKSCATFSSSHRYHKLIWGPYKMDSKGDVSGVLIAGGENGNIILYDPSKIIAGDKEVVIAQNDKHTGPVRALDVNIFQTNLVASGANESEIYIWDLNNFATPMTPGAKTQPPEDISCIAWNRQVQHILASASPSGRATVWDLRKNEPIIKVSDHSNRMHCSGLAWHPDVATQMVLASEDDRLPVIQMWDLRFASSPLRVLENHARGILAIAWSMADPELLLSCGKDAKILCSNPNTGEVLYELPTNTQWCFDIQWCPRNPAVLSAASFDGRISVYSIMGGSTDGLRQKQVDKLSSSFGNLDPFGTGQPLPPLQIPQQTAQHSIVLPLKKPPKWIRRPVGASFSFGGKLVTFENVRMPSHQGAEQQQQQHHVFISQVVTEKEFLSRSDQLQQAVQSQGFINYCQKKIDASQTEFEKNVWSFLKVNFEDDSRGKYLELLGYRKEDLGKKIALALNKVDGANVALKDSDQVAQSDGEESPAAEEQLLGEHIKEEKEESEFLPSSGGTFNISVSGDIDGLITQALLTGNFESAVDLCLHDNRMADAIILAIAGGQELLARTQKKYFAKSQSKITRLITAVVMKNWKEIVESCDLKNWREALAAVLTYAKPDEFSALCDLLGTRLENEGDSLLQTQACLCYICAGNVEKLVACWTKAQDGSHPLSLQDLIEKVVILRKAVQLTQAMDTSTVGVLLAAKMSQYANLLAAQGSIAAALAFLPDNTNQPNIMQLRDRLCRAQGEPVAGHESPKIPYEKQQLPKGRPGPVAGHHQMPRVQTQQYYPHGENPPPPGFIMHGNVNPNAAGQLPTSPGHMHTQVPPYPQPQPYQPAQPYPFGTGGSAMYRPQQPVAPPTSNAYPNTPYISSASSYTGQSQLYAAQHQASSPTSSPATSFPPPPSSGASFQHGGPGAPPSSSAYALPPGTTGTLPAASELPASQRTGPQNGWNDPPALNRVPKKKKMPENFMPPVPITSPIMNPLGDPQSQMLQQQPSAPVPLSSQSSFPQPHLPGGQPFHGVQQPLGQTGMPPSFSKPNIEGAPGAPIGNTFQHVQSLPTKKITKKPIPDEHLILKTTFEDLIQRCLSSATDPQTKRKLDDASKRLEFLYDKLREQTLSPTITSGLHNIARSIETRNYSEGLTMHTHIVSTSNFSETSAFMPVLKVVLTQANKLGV
UniProt P53992: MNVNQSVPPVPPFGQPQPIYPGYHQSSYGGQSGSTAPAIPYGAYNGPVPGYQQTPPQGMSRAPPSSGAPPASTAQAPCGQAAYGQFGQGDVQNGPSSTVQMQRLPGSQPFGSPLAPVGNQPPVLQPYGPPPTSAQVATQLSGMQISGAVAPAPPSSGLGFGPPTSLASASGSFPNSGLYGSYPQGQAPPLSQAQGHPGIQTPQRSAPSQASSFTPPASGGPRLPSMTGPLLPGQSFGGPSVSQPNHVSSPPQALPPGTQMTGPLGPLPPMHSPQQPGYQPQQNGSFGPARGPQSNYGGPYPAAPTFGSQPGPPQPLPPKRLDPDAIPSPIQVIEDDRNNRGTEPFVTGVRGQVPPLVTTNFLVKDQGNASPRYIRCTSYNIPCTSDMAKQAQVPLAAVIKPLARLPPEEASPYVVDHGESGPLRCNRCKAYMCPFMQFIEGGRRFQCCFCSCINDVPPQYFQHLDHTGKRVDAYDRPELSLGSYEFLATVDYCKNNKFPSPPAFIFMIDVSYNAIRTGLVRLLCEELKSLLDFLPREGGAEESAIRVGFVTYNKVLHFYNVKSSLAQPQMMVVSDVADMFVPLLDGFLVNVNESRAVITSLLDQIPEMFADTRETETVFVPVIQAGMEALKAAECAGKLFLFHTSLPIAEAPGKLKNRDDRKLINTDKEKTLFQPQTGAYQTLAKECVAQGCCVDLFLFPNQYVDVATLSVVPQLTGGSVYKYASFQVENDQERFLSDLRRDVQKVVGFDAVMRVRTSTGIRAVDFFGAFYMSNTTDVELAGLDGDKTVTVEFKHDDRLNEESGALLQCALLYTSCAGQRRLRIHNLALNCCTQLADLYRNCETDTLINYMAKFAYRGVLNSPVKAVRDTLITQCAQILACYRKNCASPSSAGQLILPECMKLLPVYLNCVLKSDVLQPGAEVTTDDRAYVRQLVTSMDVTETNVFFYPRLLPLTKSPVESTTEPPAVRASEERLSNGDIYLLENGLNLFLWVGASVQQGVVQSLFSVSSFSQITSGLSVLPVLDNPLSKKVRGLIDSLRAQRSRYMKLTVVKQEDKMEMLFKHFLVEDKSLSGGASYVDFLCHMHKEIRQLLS
UniProt Q9Y3A5: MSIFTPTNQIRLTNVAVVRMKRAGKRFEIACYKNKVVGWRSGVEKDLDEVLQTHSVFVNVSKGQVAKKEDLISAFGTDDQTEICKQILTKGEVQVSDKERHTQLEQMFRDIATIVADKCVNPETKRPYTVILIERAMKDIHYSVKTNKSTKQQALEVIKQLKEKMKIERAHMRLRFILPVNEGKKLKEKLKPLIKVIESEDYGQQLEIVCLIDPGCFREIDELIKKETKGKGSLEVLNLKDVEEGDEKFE
UniProt O00560: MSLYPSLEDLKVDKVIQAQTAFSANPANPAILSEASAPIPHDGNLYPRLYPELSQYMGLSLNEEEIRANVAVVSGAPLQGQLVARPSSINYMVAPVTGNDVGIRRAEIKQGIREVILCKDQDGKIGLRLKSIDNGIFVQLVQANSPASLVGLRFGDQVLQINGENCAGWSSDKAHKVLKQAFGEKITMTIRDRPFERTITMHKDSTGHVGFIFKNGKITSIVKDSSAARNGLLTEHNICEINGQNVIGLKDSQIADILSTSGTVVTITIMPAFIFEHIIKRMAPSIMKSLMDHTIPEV
UniProt O94855: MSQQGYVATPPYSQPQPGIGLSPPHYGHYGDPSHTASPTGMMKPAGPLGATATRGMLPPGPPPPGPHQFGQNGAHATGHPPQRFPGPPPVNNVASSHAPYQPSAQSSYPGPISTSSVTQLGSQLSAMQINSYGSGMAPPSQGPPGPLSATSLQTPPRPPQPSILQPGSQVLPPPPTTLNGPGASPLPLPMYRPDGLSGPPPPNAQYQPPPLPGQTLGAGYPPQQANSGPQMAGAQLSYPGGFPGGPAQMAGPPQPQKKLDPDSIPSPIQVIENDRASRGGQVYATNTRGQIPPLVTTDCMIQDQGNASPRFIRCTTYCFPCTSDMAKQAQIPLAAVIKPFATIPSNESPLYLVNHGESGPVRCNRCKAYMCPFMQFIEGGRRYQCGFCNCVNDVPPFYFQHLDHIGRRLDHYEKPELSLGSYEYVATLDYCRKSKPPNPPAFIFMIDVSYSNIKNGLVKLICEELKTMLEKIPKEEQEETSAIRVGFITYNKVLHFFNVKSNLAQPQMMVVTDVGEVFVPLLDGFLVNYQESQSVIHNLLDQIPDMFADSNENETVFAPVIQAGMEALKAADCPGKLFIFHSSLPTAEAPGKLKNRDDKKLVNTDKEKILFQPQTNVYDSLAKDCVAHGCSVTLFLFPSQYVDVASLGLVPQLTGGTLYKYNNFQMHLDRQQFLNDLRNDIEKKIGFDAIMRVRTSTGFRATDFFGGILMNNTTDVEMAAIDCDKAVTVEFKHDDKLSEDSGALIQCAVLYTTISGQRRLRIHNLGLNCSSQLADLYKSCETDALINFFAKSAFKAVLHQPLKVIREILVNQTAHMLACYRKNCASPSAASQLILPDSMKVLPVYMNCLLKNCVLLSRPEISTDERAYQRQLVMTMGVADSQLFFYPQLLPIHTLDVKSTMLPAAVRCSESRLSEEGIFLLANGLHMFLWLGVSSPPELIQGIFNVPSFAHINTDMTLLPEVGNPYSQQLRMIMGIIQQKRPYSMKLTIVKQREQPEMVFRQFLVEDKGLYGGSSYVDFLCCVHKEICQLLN
UniProt Q9NR31: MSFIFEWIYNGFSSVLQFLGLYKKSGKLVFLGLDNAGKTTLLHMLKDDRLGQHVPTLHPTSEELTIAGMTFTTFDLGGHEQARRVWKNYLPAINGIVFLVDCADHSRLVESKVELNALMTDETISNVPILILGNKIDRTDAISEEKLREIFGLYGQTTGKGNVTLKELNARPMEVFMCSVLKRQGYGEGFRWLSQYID

Compound in this test: Cc1cc(ccc1-c1ccccc1)C(=O)N1CCCN(CC1)C(=O)CCl [compound 10]
The experiment in a line: probe-labelled cysteine peptide fold change vs DMSO (competition) (log2 fold change); higher = less target engagement (more negative = stronger competition). The conditions noted are these: 50 µM; THP-1; incubation time: 4 h.
Take “SCML2_Q9UQR0_324_EKPLPVICSTSAASLK (UniProt Q9UQR0)”: the “probe-labelled cysteine peptide fold change” value is -0.344.
With “SCRIB_Q14160_334_NHLEALPPEIGGCVALSVLSLR (UniProt Q14160)”, the “probe-labelled cysteine peptide fold change” value is -0.214.
The same measure for “SEC61A1_P61619_13_FLEVIKPFCVILPEIQKPERK (UniProt P61619)”: -0.17; for “SEC23A_Q15436_350_AATTGHVIDIYACALDQTGLLEMK (UniProt Q15436)”: 0.0464.
For the target “SEPT5_Q99719_193_ADCLVPSEIR (UniProt Q99719)”, the “probe-labelled cysteine peptide fold change” value stood at 0.0279.
Consider “SEC31A_O94979_279_GILAIAWSMADPELLLSCGK (UniProt O94979)”, for which the “probe-labelled cysteine peptide fold change” value was -0.4.
Turning to “SDSL_Q96GA7_276_MLVEPACGAALAAIYSGLLR (UniProt Q96GA7)”, the “probe-labelled cysteine peptide fold change” value amounted to 0.203.
The value for “SCRN3_Q0VDG4_406_IVNLFPQCTK (UniProt Q0VDG4)” was -0.0632; that for “SBNO1_A3KN83_425_QLLHWCGDDFDGVIVFDECHK (UniProt A3KN83)” was 0.00827; that for “SART3_Q15020_729_LRPLFEACGEVVQIRPIFSNR (UniProt Q15020)” was 0.203.
For the target “SEC16A_O15027_1451_FSVPHVCAR (UniProt O15027)”, the “probe-labelled cysteine peptide fold change” value is 0.128.
Turning to “SEC24C_P53992_910_LLPVYLNCVLK (UniProt P53992)”, the “probe-labelled cysteine peptide fold change” value was -0.08.
The value for “SBF1_O95248_896_LLPGEECVLDGLR (UniProt O95248)” was -0.16.
As to “SATB1_Q01826_529_SQGWLCELLR (UniProt Q01826)”, the “probe-labelled cysteine peptide fold change” value is -0.874.
Take “SCYL1_Q96KG9_309_SLDAFPEDFCR (UniProt Q96KG9)”: the “probe-labelled cysteine peptide fold change” value was -0.0717.
The value for “SBDS_Q9Y3A5_210_VIESEDYGQQLEIVCLIDPGCFR (UniProt Q9Y3A5)” was -0.472.
Turning to “SDCBP_O00560_239_NGLLTEHNICEINGQNVIGLK (UniProt O00560)”, the “probe-labelled cysteine peptide fold change” value was found to be 0.0465.
Take “SEC23A_Q15436_61_ERPDLPPIQYEPVLCSR (UniProt Q15436)”: the “probe-labelled cysteine peptide fold change” value is -0.186.
For “SEC31A_O94979_644_EIVESCDLK (UniProt O94979)”, the “probe-labelled cysteine peptide fold change” value is 0.616.
For “SEMA4D_Q92854_370_PRPGACIDSEAR (UniProt Q92854)”, the “probe-labelled cysteine peptide fold change” value is -1.22.
The same measure for “SATB1_Q01826_78_GTMLPVFCVVEHYENAIEYDCKEEHAEFVLVR (UniProt Q01826)”: -0.247; for “SEC24C_P53992_452_FQCCFCSCINDVPPQYFQHLDHTGKR (UniProt P53992)”: -0.0322.
In the case of “SEC24D_O94855_573_AADCPGK (UniProt O94855)”, the “probe-labelled cysteine peptide fold change” value was 0.0012.
The same measure for “SEC23B_Q15437_61_ERPDLPPVQYEPVLCSRPTCK (UniProt Q15437)”: -0.278; for “SEL1L_Q9UBV2_153_LWCATTYDYK (UniProt Q9UBV2)”: 0.446.
For “SEL1L3_Q68CR1_475_QEACHLHNSYLDLQR (UniProt Q68CR1)”, the “probe-labelled cysteine peptide fold change” value turned out to be 0.0464.
As to “SDHA_P31040_475_ACALSIEESCRPGDK (UniProt P31040)”, the “probe-labelled cysteine peptide fold change” value is 0.402.
As to “SEC24C_P53992_816_HDDRLNEESGALLQCALLYTSCAGQR (UniProt P53992)”, the “probe-labelled cysteine peptide fold change” value is 0.222.
For the target “SART3_Q15020_780_PMFVSPCVDK (UniProt Q15020)”, the “probe-labelled cysteine peptide fold change” value is -0.0279.
For “SEMA4A_Q9H3S1_514_DPHCAWDPESR (UniProt Q9H3S1)”, the “probe-labelled cysteine peptide fold change” value is -0.196.
Take “SEC24D_O94855_431_LDHYEKPELSLGSYEYVATLDYCR (UniProt O94855)”: the “probe-labelled cysteine peptide fold change” value turned out to be 0.0811.
The value for “SCRIB_Q14160_22_HCSLQAVPEEIYR (UniProt Q14160)” was -0.184; that for “SEC24C_P53992_816_LNEESGALLQCALLYTSCAGQR (UniProt P53992)” was 0.248; that for “SEC63_Q9UGP8_295_KNEPPLTCPYSLK (UniProt Q9UGP8)” was -1.57.
In the case of “SATB1_Q01826_91_GTMLPVFCVVEHYENAIEYDCKEEHAEFVLVR (UniProt Q01826)”, the “probe-labelled cysteine peptide fold change” value was -0.32.
Regarding “SAR1A_Q9NR31_178_PMEVFMCSVLK (UniProt Q9NR31)”, the “probe-labelled cysteine peptide fold change” value came out at 0.00755.
In the case of “SART3_Q15020_114_LEEQLSINVYDYNCHVDLIR (UniProt Q15020)”, the “probe-labelled cysteine peptide fold change” value turned out to be 0.159.
As for “SEC13_P55735_299_ESVDGQWVCISDVNK (UniProt P55735)”, the “probe-labelled cysteine peptide fold change” value came out at 0.245.
In the case of “SCAF11_Q99590_752_QMNENSVTHCSENNMPSSDLADEK (UniProt Q99590)”, the “probe-labelled cysteine peptide fold change” value was -0.283.

The values are drawn from the supplement of paper PMC12067093, “Discovery and optimisation of a covalent ligand for TRIM25 and its application to targeted protein ubiquitination” (Chemical Science, 2025).
